In publication PMC11464777, “Approved drugs successfully repurposed against Leishmania based on machine learning predictions” (Frontiers in Cellular and Infection Microbiology, 2024):
Values after ≈ are worked out from the molar mass of the structure shown. Where two headings read alike, the source gives them in different places.

Tests used:
[1] = tested on: L. major and L. infantum amastigotes; test: Anti-amastigote assay, stated across the three strains; type: cell-based, Leishmania infantum, Leishmania major; settings: 72 h, LV50, Drep-14, Empa-12, intramacrophage, read-out: Amastigotes IC50, span over the three strains
Protocol: (§1) THP-1-derived macrophages (5 × 10^4/well) were seeded in each 8-well Labtek slides (Thermo Scientific). Adherent macrophages were obtained as described above, then infected with stationary phase promastigotes of each strain at a ratio 10:1 (10 parasites/macrophage) in RPMI medium containing penicillin (100 U/mL) and streptomycin (100 μg/mL) with 10% fetal bovine serum (Gibco, Brazil) at 37°C in 5% CO2 for 24 h. […] Non-infected control cells were incubated in a supplemented RPMI medium containing 1% DMSO. After 72h of incubation, cells were fixed and stained using May-Grunwald-Giemsa staining with RAL 555 Kit (RAL DIAGNOSTICS, France), following the manufacturer’s instructions. The percentage of infected cells and the total number of internalized parasites per 100 macrophages were determined under immersion oil (magnification of 1000X) using light microscopy. The percentage of amastigotes viability was expressed as the percentage of total number of internalized parasites within treated cells relative to the total number of internalized parasites within control cells treated with 1% DMSO, and calculated as follows:
(§2) Relative amastigote viability (%) = [(number of amastigotes/100 treated cells)/(number of amastigotes/100 treated cells with1% DMSO)] * 100
(§3) The relative percentage of amastigote viability was evaluated to calculate half inhibitory concentrations (IC50). […]

[2] = tested on: L. major Empa-12 promastigotes; test: MTT-based promastigote viability assay, L. major Empa-12; type: cell-based; settings: Leishmania major, Empa-12, 72 h
Source text: (§4) Three Tunisian laboratory strains already described ([Oualha et al., 2019]), originally isolated from distinct clinical manifestations were used in this study: (i) L. infantum LV50 MHOM/TN/94/LV50) strain originating from a bone marrow of a visceral leishmaniasis patient, (ii) L. infantum Drep-14 (MHOM/TN/96/Drep-14) strain isolated from a lesion of a sporadic cutaneous leishmaniasis patient and (iii) L. major Empa-12 (MHOM/TN/2012/Empa-12) strain isolated from a zoonotic cutaneous leishmaniasis patient. Stocks of these parasites obtained after passage through BALB/c mice were used as previously described ([Oualha et al., 2019]). […]
(§5) The effect of the selected compounds on the viability of Leishmania promastigotes was evaluated by a colorimetric MTT (3-(4,5-dimethylthiazol-2yl)-2,5-diphenyl tetrazolium bromide) assay. It consists in the reduction of tetrazolium salt to a […] crystal (blue formazan) by the succinate dehydrogenase activity of mitochondria in living cells, which can be quantified by spectrophotometry. […] Then, 150 μl of DMSO was added to each well to dissolve the blue formazan and the optical density (OD) was measured at 570 nm with a microplate reader ([…], Labsystems). […] The mean percentage of promastigotes viability was calculated from the Optical Density at 570 nm as follows: […]

[3] = tested on: promastigotes of L. amazonensis; settings: read-out: IC50 against promastigotes, ref Andrade-Neto et al., 2016; cited from earlier work
[4] = tested on: L. major Empa-12 intracellular amastigotes; test: Anti-amastigote assay in THP-1-derived macrophages, L. major Empa-12; type: cell-based; settings: Leishmania major, Macrophage, Empa-12, intramacrophage, 72 h
Protocol: as §1, §2, §3

[5] = tested on: amastigotes of L. amazonensis; settings: read-out: IC50 against amastigotes, relative to established threshold, ref Andrade-Neto et al., 2016; cited from earlier work
[6] = tested on: L. infantum (LV50 and Drep-14) and L. major (Empa-12) promastigotes; test: MTT promastigote viability assay, stated across the three strains; type: cell-based, Leishmania major; settings: Leishmania infantum, LV50, Drep-14, Empa-12, 72 h, read-out: Promastigotes IC50, span over the three strains
Source text: as §4, §5

[7] = tested on: L. infantum Drep-14 promastigotes; test: microbe, parasite or virus in culture; type: cell-based; settings: Leishmania infantum, 72 h
Source text: as §4, §5

Structure (SMILES): O=c1[nH]c2ccccc2n1CCCN1CCC(n2c(=O)[nH]c3cc(Cl)ccc32)CC1 [Domperidone]
- IC50 [1]: ≤ 1.99 µg/mL
- IC50 ([2]; read-out: Promastigotes IC50): 8.17 ± 0.41 µg/mL
- IC50 ([2]; read-out: Promastigotes IC50 (in brackets) (converted)): 19.2 µM
- IC50 [3]: 51 µM
- IC50 ([4]; read-out: Amastigotes IC50): 1.99 ± 0.1 µg/mL
- IC50 ([4]; read-out: Amastigotes IC50 (in brackets) (converted)): 4.67 µM
- IC50 [5]: < 25 µM
- IC50 [6]: 6.3 to 8.17 µg/mL (≈ 14.8 to 19.2 µM)
- IC50 ([7]; read-out: Promastigotes IC50): 6.3 ± 0.38 µg/mL
- IC50 ([7]; read-out: Promastigotes IC50 (in brackets)): 14.8 µM
